No constants are given. Whether binding was seen depends on the method and setting. Some results given as binding are weak or reduced against the parent protein; the word gives no strength.

Protein sequences, listed by entry. Tags and fused reporters are not part of them. Lines headed by an entry give the natural chain unless they say otherwise; changes in a name come on top.
UniProt Q06632: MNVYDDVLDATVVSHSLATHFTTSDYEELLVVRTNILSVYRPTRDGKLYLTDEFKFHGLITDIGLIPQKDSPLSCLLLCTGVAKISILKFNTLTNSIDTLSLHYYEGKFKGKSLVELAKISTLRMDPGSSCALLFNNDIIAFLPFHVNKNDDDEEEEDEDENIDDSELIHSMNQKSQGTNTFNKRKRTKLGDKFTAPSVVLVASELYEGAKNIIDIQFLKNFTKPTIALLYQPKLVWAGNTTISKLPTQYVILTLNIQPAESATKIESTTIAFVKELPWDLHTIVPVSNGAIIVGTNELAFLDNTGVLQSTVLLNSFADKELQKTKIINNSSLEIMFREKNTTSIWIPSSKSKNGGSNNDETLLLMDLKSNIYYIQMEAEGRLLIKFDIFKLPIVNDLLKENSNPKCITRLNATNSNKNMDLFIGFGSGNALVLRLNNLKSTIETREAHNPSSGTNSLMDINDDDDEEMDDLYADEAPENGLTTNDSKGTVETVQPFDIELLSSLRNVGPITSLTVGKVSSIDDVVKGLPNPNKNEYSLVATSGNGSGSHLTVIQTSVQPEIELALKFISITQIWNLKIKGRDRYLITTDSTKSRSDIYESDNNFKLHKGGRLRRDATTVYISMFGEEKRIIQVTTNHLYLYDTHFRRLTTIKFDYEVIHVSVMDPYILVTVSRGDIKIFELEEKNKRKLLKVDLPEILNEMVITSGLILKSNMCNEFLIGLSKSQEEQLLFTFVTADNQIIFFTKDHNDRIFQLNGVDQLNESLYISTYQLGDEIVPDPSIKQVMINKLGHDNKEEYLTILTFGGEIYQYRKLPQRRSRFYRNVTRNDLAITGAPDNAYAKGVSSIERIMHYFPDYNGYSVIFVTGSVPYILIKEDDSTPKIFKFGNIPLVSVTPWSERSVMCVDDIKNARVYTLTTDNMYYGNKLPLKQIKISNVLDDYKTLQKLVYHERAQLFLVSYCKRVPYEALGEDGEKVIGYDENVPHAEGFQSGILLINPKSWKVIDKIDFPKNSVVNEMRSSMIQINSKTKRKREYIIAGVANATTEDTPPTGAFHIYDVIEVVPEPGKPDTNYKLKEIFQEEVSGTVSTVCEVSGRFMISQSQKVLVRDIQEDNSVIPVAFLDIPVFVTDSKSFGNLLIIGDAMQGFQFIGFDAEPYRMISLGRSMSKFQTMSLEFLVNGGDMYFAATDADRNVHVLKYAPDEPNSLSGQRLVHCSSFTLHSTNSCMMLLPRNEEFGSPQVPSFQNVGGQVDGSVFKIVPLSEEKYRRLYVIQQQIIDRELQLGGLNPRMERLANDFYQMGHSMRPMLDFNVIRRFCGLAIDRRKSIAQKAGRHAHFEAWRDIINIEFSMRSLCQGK
UniProt P42841: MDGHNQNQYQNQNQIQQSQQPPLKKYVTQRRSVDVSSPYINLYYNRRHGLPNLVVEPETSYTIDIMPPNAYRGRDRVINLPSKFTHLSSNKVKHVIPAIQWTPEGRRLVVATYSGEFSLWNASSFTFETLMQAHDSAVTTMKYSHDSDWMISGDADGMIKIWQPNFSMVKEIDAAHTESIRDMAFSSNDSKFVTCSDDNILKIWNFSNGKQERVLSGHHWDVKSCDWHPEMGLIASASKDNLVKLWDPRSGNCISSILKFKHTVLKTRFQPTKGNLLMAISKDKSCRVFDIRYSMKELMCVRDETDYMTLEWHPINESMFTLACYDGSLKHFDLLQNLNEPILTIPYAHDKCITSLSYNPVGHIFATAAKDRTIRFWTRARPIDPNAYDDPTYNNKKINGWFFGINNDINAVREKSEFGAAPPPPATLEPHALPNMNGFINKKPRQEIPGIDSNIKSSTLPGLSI
UniProt Q06102: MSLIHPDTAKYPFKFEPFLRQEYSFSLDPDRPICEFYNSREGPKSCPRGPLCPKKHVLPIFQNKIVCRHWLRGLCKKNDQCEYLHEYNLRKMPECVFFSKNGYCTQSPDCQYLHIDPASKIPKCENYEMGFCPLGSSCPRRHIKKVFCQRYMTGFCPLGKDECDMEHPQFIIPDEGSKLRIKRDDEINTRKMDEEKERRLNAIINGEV
UniProt P45976: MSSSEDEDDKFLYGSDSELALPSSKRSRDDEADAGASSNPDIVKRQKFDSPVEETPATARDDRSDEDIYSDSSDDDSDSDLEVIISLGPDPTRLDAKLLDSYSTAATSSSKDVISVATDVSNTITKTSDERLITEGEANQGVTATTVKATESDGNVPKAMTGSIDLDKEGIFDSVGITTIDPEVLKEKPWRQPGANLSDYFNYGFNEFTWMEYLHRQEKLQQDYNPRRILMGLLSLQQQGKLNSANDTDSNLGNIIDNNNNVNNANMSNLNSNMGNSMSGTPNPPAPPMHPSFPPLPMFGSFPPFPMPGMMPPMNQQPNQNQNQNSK
UniProt P29468: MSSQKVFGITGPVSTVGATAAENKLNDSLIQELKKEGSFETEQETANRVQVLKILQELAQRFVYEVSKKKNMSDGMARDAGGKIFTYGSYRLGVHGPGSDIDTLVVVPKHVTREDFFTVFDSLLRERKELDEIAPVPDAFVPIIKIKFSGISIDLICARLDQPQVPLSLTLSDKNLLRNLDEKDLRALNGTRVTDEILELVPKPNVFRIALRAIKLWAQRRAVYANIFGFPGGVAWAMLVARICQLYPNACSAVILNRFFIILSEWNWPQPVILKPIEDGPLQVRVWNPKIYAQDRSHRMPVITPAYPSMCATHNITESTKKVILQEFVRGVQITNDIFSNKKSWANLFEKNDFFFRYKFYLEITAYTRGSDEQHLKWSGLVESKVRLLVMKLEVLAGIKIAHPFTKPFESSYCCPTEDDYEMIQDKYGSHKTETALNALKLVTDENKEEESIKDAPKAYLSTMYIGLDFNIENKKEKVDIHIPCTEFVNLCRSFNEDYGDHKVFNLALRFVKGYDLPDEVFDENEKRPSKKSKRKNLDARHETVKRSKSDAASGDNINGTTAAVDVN
UniProt P25298: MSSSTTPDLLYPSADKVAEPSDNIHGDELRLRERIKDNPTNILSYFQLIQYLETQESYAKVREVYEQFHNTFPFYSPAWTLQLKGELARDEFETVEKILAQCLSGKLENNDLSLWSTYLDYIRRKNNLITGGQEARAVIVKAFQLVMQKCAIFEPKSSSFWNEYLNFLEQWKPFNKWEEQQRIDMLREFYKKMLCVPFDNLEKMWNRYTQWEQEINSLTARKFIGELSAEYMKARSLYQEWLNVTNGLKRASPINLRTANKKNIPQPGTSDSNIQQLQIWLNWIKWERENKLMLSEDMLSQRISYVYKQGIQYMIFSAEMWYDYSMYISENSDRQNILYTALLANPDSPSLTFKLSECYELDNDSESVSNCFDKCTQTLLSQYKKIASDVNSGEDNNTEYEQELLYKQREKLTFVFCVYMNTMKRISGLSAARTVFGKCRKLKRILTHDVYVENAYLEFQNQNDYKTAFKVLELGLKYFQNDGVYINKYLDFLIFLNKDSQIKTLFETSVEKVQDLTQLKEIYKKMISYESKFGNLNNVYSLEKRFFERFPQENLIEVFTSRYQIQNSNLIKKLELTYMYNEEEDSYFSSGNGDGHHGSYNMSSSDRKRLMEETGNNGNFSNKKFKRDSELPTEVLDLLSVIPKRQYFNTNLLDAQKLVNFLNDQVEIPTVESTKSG

The target in assay [1] is recombinant four-subunit complex (Cft1, Pfs2, Yth1, Fip1) (yeast) (UniProt Q06632+P42841+Q06102+P45976). Nature of the assay: co-purification of the overexpressed complex; polymerase module overexpressed in insect cells, purified with or without the Pap1 subunit.
In assay [2] the target is polymerase module of CPF (recombinant; Cft1, Pfs2, Pap1, Fip1, Yth1) (yeast) (UniProt Q06632+P42841+P29468+P45976+Q06102). Nature of the assay: pull-down; polymerase module immobilized, incubated with purified MBP, CF IA or Rna14–Rna15; Coomassie-stained SDS-PAGE; both purified.

As for “Pap1 (recombinant, polymerase module) (from UniProt P29468 1-568) (enzyme)”, the binding result in assay [1] is recorded as “binds”.
On to “cleavage factor IA (CF IA), recombinant (from UniProt P25298 1-677; P25299 1-296; P39081 1-626; Q08685 1-445) (complex)”, for which the binding result in assay [2] was “binds”.

The values above are taken from paper PMC5788269.
